Values from PubChem BioAssay AID743454 (Peter MacCallum Cancer Centre, 2014)

- Aim: 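Knock-downs lowering viability or raising caspase 3/7 activity in vorinostat-treated resistant cells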 (primary screen)
- System: human HCT116-VR colon cancer cells, selected for vorinostat resistance
- Knock-down reagent: siRNA pool against human genes, 40 nM siRNA pool
- Time to read-out: vorinostat for 24 h, read-out about 72 h after transfection
- Treatment: vorinostat at 2.5 µM final
- Detection: 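Cell viability by CellTiter-Fluor and caspase 3/7 activity by luminescence, each scaled to mock wells per plate, duplicates averaged, then robust z-scored over all plates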
- Scale: viability robust z-score: higher = more viable cells than screen typical; caspase robust z-score: higher = more caspase 3/7 activity than screen typical
- Call rule: 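Hits are knock-downs in viability class RV1/RV2 or caspase class CA1/CA2, excluding ones that killed cells in the no-drug cell-count arm; hits then retested with single siRNAs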
In all, the deposit lists about 18,000 reagents; below is an unselected part. Of all reagents, 450 (2.5%) are marked active. 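Single biological run; no consistent viability z cut-off exists, so the class columns, not z-scores, define the calls.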 Reagent sequences are not shown.

Gene | viability hit class | caspase hit class | viability robust z-score | caspase robust z-score | Call
USP21 (GeneID 27005) | no change | no change | -0.9 | 0.09 | inactive
MIR9-1HG (GeneID 10485) | no change | no change | -0.74 | 0.22 | inactive
TAF4 (GeneID 6874) | no change | no change | -0.18 | -0.32 | inactive
TLX1NB (GeneID 100038246) | no change | no change | -0.96 | 0.52 | inactive
ERCC5 (GeneID 2073) | no change | no change | -0.45 | 0.06 | inactive
ART1 (GeneID 417) | no change | no change | 0.38 | 1.21 | inactive
PELO (GeneID 53918) | no change | no change | 0.9 | 1.22 | inactive
BANP (GeneID 54971) | no change | no change | 0.72 | 2.11 | inactive
ZNF326 (GeneID 284695) | no change | no change | 1.2 | -0.74 | inactive
ZRANB1 (GeneID 54764) | no change | no change | 0.12 | -1.25 | inactive
CFAP300 (GeneID 85016) | no change | no change | 0.03 | -0.16 | inactive
UQCR11 (GeneID 10975) | no change | no change | 0.46 | -0.9 | inactive
YWHAQ (GeneID 10971) | no change | no change | 0.86 | 0.15 | inactive
IL13 (GeneID 3596) | no change | no change | -0.05 | 2.15 | inactive
ZNF420 (GeneID 147923) | no change | no change | -0.33 | 0.18 | inactive
PRR5-ARHGAP8 (GeneID 553158) | no change | no change | 2.7 | 0.35 | inactive
CHGA (GeneID 1113) | no change | no change | 0.55 | 0.57 | inactive
CNTF (GeneID 1270) | no change | no change | 0.46 | -0.23 | inactive
KRTAP4-2 (GeneID 85291) | no change | no change | 0.32 | 0.76 | inactive
TFIP11 (GeneID 24144) | no change | no change | -1.96 | -0.36 | inactive
ACSM1 (GeneID 116285) | no change | no change | -0.48 | 0.07 | inactive
RIBC2 (GeneID 26150) | no change | no change | -1 | -0.7 | inactive
PTPRO (GeneID 5800) | no change | no change | 0.56 | -1.19 | inactive
FOS (GeneID 2353) | no change | no change | -1.75 | 1.86 | inactive
THAP7 (GeneID 80764) | no change | no change | -0.26 | -0.52 | inactive
HNRNPH2 (GeneID 3188) | no change | no change | 0.16 | 0.01 | inactive
TMX4 (GeneID 56255) | no change | no change | 0.7 | -0.06 | inactive
PYCARD (GeneID 29108) | no change | no change | 0.2 | -0.99 | inactive
CKMT2 (GeneID 1160) | no change | no change | -0.33 | -0.83 | inactive
SPRR4 (GeneID 163778) | no change | no change | 0.64 | -0.43 | inactive
SETDB1 (GeneID 9869) | no change | no change | -0.44 | -0.26 | inactive
IFNA8 (GeneID 3445) | no change | no change | -0.48 | -1.23 | inactive
NCK1 (GeneID 4690) | no change | no change | 0.56 | -0.5 | inactive
CDCA3 (GeneID 83461) | no change | no change | -0.52 | -0.4 | inactive
OR7E85BP (GeneID 650293) | no change | CA2 (caspase activation) | -0.71 | 6.98 | active
IL36B (GeneID 27177) | no change | no change | 0.5 | 0.26 | inactive
PSKH1 (GeneID 5681) | no change | no change | 0.38 | -0.64 | inactive
IMPDH1 (GeneID 3614) | no change | no change | 0.44 | -0.94 | inactive
FAM90A1 (GeneID 55138) | no change | no change | 0.27 | 3.28 | inactive
